# Test results taken from publication PMC4813707.
# The chains behind the UniProt entries cited, without tags or fusion partners.
# UniProt Q9R190: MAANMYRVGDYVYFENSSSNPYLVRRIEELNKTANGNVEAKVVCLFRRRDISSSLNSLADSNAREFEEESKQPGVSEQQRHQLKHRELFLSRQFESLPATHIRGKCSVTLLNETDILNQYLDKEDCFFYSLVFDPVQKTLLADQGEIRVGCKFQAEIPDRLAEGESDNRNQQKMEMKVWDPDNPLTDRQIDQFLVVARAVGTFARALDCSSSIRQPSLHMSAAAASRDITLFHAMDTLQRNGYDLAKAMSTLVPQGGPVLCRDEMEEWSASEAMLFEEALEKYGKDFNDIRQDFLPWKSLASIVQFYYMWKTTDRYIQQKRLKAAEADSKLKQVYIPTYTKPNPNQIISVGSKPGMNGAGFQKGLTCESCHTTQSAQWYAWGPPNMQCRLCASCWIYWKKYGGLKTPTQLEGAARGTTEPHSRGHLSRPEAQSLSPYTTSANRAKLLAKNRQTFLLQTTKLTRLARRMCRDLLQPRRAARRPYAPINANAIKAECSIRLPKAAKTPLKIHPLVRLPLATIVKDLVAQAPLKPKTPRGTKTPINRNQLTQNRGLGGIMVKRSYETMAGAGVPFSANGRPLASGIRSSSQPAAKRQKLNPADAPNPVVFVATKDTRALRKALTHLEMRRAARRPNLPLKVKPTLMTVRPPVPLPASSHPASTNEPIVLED
# UniProt P70288: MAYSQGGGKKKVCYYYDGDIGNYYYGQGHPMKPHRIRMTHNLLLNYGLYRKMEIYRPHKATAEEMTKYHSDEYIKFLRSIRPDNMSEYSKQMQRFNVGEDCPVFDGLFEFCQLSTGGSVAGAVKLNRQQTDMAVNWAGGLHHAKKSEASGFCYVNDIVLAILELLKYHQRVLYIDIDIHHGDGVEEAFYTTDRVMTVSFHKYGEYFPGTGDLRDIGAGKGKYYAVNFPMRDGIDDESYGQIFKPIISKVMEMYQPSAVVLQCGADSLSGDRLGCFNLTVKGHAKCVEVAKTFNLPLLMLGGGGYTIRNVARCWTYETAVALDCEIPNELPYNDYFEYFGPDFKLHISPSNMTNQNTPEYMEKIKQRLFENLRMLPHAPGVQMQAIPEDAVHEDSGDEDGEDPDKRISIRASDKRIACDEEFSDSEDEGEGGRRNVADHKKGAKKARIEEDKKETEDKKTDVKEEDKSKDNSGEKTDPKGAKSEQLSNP
# Results are given in words; binding and its absence hold for the method and conditions named. In cells and extracts the contact can be indirect. Some entries that bind do so weakly or less than the wild type.
# Molecular target: Mta2-FTAP (mouse) (UniProt Q9R190)
# Experiment: co-IP; Mta2-FTAP immunoprecipitated with anti-FLAG antibody from whole cell lysates (first step of the serial IP); Western blotting
substance,measurement,value
Hdac2 (from UniProt P70288 1-488) (enzyme),binding,binds
